# Assay results reported in the supplement of paper PMC10032668.
# Protein sequences, listed by entry. Tags and fused reporters are not part of them.
# CDC27, P30260, UniProt P30260, whole entry: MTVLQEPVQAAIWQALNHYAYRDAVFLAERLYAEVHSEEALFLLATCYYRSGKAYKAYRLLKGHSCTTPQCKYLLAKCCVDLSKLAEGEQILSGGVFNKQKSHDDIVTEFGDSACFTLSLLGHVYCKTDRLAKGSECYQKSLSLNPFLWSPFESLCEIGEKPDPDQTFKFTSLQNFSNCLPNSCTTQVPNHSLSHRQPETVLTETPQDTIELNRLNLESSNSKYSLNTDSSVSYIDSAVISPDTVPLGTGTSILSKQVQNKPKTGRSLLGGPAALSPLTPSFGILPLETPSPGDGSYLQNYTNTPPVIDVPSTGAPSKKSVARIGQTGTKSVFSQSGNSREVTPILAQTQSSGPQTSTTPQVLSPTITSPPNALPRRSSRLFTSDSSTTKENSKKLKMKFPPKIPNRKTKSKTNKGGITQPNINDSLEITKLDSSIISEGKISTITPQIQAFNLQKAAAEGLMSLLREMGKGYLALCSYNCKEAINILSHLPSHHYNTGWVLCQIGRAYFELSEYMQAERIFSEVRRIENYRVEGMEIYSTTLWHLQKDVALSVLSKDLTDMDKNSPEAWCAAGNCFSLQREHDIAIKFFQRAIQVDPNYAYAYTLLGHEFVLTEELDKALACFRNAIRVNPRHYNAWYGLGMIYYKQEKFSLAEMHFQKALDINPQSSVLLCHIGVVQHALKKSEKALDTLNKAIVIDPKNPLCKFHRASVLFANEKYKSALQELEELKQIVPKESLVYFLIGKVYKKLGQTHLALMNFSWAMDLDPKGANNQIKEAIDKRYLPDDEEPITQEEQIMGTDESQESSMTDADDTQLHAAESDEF
# GPN1, Q9HCN4, UniProt Q9HCN4, whole entry: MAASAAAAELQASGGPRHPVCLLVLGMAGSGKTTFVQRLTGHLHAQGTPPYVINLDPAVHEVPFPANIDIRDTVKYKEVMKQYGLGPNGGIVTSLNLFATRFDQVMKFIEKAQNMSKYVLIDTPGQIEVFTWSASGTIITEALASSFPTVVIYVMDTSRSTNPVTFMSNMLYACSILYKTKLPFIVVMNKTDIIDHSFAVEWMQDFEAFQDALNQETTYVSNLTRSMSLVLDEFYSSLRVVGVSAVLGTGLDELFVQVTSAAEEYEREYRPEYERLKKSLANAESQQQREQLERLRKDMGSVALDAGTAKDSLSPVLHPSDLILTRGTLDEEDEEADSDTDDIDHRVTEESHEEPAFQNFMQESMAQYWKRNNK
# PDIA3, P30101, UniProt P30101, whole entry: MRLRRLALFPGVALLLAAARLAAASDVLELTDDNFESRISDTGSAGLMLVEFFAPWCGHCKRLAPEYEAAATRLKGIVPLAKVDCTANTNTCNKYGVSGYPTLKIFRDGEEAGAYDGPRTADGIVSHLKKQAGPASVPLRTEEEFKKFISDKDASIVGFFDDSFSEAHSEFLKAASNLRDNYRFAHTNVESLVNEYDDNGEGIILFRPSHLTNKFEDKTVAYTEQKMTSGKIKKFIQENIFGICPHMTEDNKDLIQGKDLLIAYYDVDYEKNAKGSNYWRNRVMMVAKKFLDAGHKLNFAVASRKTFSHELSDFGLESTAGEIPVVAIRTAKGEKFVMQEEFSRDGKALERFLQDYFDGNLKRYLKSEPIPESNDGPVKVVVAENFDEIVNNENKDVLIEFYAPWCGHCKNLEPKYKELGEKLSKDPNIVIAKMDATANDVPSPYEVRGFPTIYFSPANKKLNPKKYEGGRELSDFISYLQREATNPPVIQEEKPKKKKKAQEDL
# SNRPB2, P08579, UniProt P08579, whole entry: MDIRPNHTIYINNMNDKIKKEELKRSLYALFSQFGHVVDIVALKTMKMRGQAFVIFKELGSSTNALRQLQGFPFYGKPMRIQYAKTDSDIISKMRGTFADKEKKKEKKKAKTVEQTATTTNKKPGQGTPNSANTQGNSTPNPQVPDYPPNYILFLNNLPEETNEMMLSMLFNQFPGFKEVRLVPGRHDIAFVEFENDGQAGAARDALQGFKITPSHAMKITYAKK
# TF, P02787, UniProt P02787, whole entry: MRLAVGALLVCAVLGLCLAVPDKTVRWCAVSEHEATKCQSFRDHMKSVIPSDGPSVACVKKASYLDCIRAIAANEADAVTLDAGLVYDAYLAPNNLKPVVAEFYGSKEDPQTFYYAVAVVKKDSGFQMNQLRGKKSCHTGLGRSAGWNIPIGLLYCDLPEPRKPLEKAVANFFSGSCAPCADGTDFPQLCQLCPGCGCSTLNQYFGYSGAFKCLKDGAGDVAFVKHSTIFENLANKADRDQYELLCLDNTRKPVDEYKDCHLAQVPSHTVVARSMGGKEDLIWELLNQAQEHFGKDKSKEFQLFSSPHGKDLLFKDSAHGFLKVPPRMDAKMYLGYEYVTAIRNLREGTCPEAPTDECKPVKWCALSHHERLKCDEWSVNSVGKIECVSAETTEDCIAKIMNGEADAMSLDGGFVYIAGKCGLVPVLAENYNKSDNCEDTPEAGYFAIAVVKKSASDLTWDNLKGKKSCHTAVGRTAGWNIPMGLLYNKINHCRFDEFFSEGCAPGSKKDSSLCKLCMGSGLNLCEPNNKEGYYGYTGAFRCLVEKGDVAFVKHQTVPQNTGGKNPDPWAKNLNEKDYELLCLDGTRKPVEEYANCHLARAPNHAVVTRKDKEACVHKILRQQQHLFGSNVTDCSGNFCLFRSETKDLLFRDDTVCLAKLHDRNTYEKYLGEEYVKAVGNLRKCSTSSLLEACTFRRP
# This is one part of the list. The list holds hits alone, and they repeat only in part.
# B1: IFRD1 (peptide)
# chain: LLAEDSPLSRPPHRR
# B2: PVT1 (peptide)
# chain: PRHLPVDFLAERMLA
# B3: GLUT1_MUT_3 (peptide)
# chain: TPEELFHLLGADSQ
# Columns and labels:
# Test in all cases: PRISMA enrichment of interactor (LFQ) in peptide spot vs all other peptide spots (log2 fold change); higher = stronger / more specific binding of the interactor to the peptide
# ACACA, Q13085 = target: ACACA, Q13085
# Procedure: (§1)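 PRISMA: 15-aa overlapping tiles (offset 8 aa) of 60 microproteins, plus SOS1/GLUT1 control peptides, were spot-synthesized on cellulose membranes in triplicate. Membranes were incubated with benzonase-treated HEK293T lysate, and bound proteins were identified by LC-MS/MS with LFQ. Enrichment is the log2 fold change of each protein in one spot versus all other spots. Only interactors passing the significance cutoff are listed.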
# ACAT2, Q9BWD1 = target: ACAT2, Q9BWD1
# Procedure: as §1
# ADAR, P55265 = target: ADAR, P55265
# Procedure: as §1
# AK4, P27144 = target: AK4, P27144
# Procedure: as §1
# C12orf45, Q8N5I9 = target: C12orf45, Q8N5I9
# Procedure: as §1
# CDC27, P30260 = target: CDC27, P30260
# Procedure: as §1
# FAM120A, Q9NZB2 = target: FAM120A, Q9NZB2
# Procedure: as §1
# GATA6, Q92908 = target: GATA6, Q92908
# Procedure: as §1
# GPAT4, Q86UL3 = target: GPAT4, Q86UL3
# Procedure: as §1
# GPN1, Q9HCN4 = target: GPN1, Q9HCN4
# Procedure: as §1
# MRPL47, Q9HD33 = target: MRPL47, Q9HD33
# Procedure: as §1
# MRPS10, P82664 = target: MRPS10, P82664
# Procedure: as §1
# NAA15, Q9BXJ9 = target: NAA15, Q9BXJ9
# Procedure: as §1
# NEPRO, Q6NW34 = target: NEPRO, Q6NW34
# Procedure: as §1
# NKRF, O15226 = target: NKRF, O15226
# Procedure: as §1
# OXA1L, Q15070 = target: OXA1L, Q15070
# Procedure: as §1
# PDIA3, P30101 = target: PDIA3, P30101
# Procedure: as §1
# PEX3, P56589 = target: PEX3, P56589
# Procedure: as §1
# POLR2C, P19387 = target: POLR2C, P19387
# Procedure: as §1
# PSMA5, P28066 = target: PSMA5, P28066
# Procedure: as §1
# RPF2, Q9H7B2 = target: RPF2, Q9H7B2
# Procedure: as §1
# SNRPB2, P08579 = target: SNRPB2, P08579
# Procedure: as §1
# TF, P02787 = target: TF, P02787
# Procedure: as §1
# THYN1, Q9P016 = target: THYN1, Q9P016
# Procedure: as §1
# UBAP2L, Q14157 = target: UBAP2L, Q14157
# Procedure: as §1
# UQCRFS1, P47985 = target: UQCRFS1, P47985
# Procedure: as §1
# VARS, P26640 = target: VARS, P26640
# Procedure: as §1
# XPO7, Q9UIA9 = target: XPO7, Q9UIA9
# Procedure: as §1
# ACAD11, Q709F0 = target: ACAD11, Q709F0
# Procedure: as §1
# CFAP20, Q9Y6A4 = target: CFAP20, Q9Y6A4
# Procedure: as §1
# CLTA, P09496 = target: CLTA, P09496
# Procedure: as §1
# CLTB, P09497 = target: CLTB, P09497
# Procedure: as §1
# CLTC, Q00610 = target: CLTC, Q00610
# Procedure: as §1
# DECR1, Q16698 = target: DECR1, Q16698
# Procedure: as §1
# ECHS1, P30084 = target: ECHS1, P30084
# Procedure: as §1
# GABARAPL2, P60520 = target: GABARAPL2, P60520
# Procedure: as §1
# HIST2H2BE, Q16778 = target: HIST2H2BE, Q16778
# Procedure: as §1
# MAP1LC3B, Q9GZQ8 = target: MAP1LC3B, Q9GZQ8
# Procedure: as §1
# PYCR2, Q96C36 = target: PYCR2, Q96C36
# Procedure: as §1
# SEC16A, O15027 = target: SEC16A, O15027
# Procedure: as §1
# ZNF724, A8MTY0 = target: ZNF724, A8MTY0
# Procedure: as §1
binder,measurement,setting,value
B1,PRISMA enrichment of interactor (log2),"ACACA, Q13085",5.33
same,PRISMA enrichment of interactor (log2),"ACAT2, Q9BWD1",4.64
same,PRISMA enrichment of interactor (log2),"ADAR, P55265",4.56
same,PRISMA enrichment of interactor (log2),"AK4, P27144",4.94
same,PRISMA enrichment of interactor (log2),"C12orf45, Q8N5I9",4.07
same,PRISMA enrichment of interactor (log2),"CDC27, P30260",6.28
same,PRISMA enrichment of interactor (log2),"FAM120A, Q9NZB2",4.98
same,PRISMA enrichment of interactor (log2),"GATA6, Q92908",6.09
same,PRISMA enrichment of interactor (log2),"GPAT4, Q86UL3",6.13
same,PRISMA enrichment of interactor (log2),"GPN1, Q9HCN4",4.54
same,PRISMA enrichment of interactor (log2),"MRPL47, Q9HD33",5.57
same,PRISMA enrichment of interactor (log2),"MRPS10, P82664",6.58
same,PRISMA enrichment of interactor (log2),"NAA15, Q9BXJ9",5.5
same,PRISMA enrichment of interactor (log2),"NEPRO, Q6NW34",6.91
same,PRISMA enrichment of interactor (log2),"NKRF, O15226",6.07
same,PRISMA enrichment of interactor (log2),"OXA1L, Q15070",6.11
same,PRISMA enrichment of interactor (log2),"PDIA3, P30101",5.16
same,PRISMA enrichment of interactor (log2),"PEX3, P56589",5.8
same,PRISMA enrichment of interactor (log2),"POLR2C, P19387",5.64
same,PRISMA enrichment of interactor (log2),"PSMA5, P28066",5.61
same,PRISMA enrichment of interactor (log2),"RPF2, Q9H7B2",5.1
same,PRISMA enrichment of interactor (log2),"SNRPB2, P08579",5.81
same,PRISMA enrichment of interactor (log2),"TF, P02787",5.38
same,PRISMA enrichment of interactor (log2),"THYN1, Q9P016",4.49
same,PRISMA enrichment of interactor (log2),"UBAP2L, Q14157",5.12
same,PRISMA enrichment of interactor (log2),"UQCRFS1, P47985",9.11
B2,PRISMA enrichment of interactor (log2),"VARS, P26640",4.48
same,PRISMA enrichment of interactor (log2),"XPO7, Q9UIA9",8.85
B3,PRISMA enrichment of interactor (log2),"ACAD11, Q709F0",3.97
same,PRISMA enrichment of interactor (log2),"CFAP20, Q9Y6A4",4.25
same,PRISMA enrichment of interactor (log2),"CLTA, P09496",5.78
same,PRISMA enrichment of interactor (log2),"CLTB, P09497",4.89
same,PRISMA enrichment of interactor (log2),"CLTC, Q00610",3.43
same,PRISMA enrichment of interactor (log2),"DECR1, Q16698",5.09
same,PRISMA enrichment of interactor (log2),"ECHS1, P30084",5.68
same,PRISMA enrichment of interactor (log2),"GABARAPL2, P60520",5.21
same,PRISMA enrichment of interactor (log2),"HIST2H2BE, Q16778",4.48
same,PRISMA enrichment of interactor (log2),"MAP1LC3B, Q9GZQ8",5.18
same,PRISMA enrichment of interactor (log2),"PYCR2, Q96C36",4.75
same,PRISMA enrichment of interactor (log2),"SEC16A, O15027",4.15
same,PRISMA enrichment of interactor (log2),"ZNF724, A8MTY0",5.39

# Three records picked at random from those above, as already listed:
binder,measurement,setting,value
B1,PRISMA enrichment of interactor (log2),"PDIA3, P30101",5.16
same,PRISMA enrichment of interactor (log2),"POLR2C, P19387",5.64
same,PRISMA enrichment of interactor (log2),"NKRF, O15226",6.07
